Patent US11717508B2, “Compounds, compositions, and methods for inhibiting bacterial growth” (priority 2016, dated 2023)
Values joined by “and” are separate entries in the source; they are usually repeats but may differ in a detail not shown here. Equal values may be shown once. Read-outs that look alike come from different tables or passages of the source. The source gives many values for each of these; only a part stands here.

System: DosRST regulon
Assay type: cell-based

C[C@@H]1CC[C@H]2[C@@H](C)C(=O)O[C@@H]3O[C@]4(C)CC[C@@H]1[C@]32OO4 [HC101A, artemisinin, reference compound]
Counts per million (CPM) WT_HC101A (gene MT0037 (Rv0032 bioF2)): 35.24 CPM and 27.75 CPM | log2 Fold change (gene MT0037 (Rv0032 bioF2)): −1.613 | Counts per million (CPM) WT_HC101A (gene MT0038 (Rv0033)): 2.484 CPM and 3.491 CPM | log2 Fold change (gene MT0038 (Rv0033)): −2.538 | Counts per million (CPM) WT_HC101A (gene MT0040 (Rv0035 fadD34)): 24.97 CPM and 29.56 CPM | log2 Fold change (gene MT0040 (Rv0035 fadD34)): −1.712 | Counts per million (CPM) WT_HC101A (gene MT0179 (Rv0170)): 123.2 CPM and 102.2 CPM | Counts per million (CPM) WT_HC101A (gene MT0180 (Rv0171)): 138.6 CPM and 130 CPM | Counts per million (CPM) WT_HC101A (gene MT0181 (Rv0172)): 183.6 CPM and 197.8 CPM | Counts per million (CPM) WT_HC101A (gene MT0182 (Rv0173 IprK)): 87.14 CPM and 107.7 CPM | Counts per million (CPM) WT_HC101A (gene MT0183 (Rv0174)): 349 CPM and 411.7 CPM | Counts per million (CPM) WT_HC101A (gene MT0241 (Rv0231 fadE4)): 59.55 CPM and 72.38 CPM | Counts per million (CPM) WT_HC101A (gene MT0244 (Rv0233 nrdB)): 37.26 CPM and 30.02 CPM | Counts per million (CPM) WT_HC101A (gene MT0329 (Rv0315)): 70.6 CPM and 95.13 CPM | Counts per million (CPM) WT_HC101A (gene MT0417): 28.96 CPM and 22.92 CPM | Counts per million (CPM) WT_HC101A (gene MT0423 (Rv0410c pknG)): 514.1 CPM and 411.9 CPM | Counts per million (CPM) WT_HC101A (gene MT0424 (Rv0411c glnH)): 282.7 CPM and 250 CPM | Counts per million (CPM) WT_HC101A (gene MT0425 (Rv0412c)): 385.5 CPM and 301.3 CPM | Counts per million (CPM) WT_HC101A (gene MT0429 (Rv0416)): 5.818 CPM and 5.876 CPM | Counts per million (CPM) WT_HC101A (gene MT0434): 27.78 CPM and 21.99 CPM | Counts per million (CPM) WT_HC101A (gene MT0524): 188.7 CPM and 239.4 CPM | Counts per million (CPM) WT_HC101A (gene MT0595 (Rv0569)): 36.09 CPM and 36.48 CPM | Counts per million (CPM) WT_HC101A (gene MT0596 (Rv0570 nrdZ)): 90.47 CPM and 115.7 CPM | Counts per million (CPM) WT_HC101A (gene MT0597 (Rv0571c)): 81.52 CPM and 88.38 CPM | Counts per million (CPM) WT_HC101A (gene MT0599 (Rv0572c)): 38.44 CPM and 70.87 CPM | Counts per million (CPM) WT_HC101A (gene MT0601 (Rv0573c)): 10.2 CPM and 13.27 CPM | Counts per million (CPM) WT_HC101A (gene MT0602 (Rv0574c)): 28.89 CPM and 33.92 CPM | Counts per million (CPM) WT_HC101A (gene MT0637 (Rv0608)): 30.14 CPM and 24.84 CPM | Counts per million (CPM) WT_HC101A (gene MT0735 (Rv0708 rplP)): 74.26 CPM and 58.88 CPM | Counts per million (CPM) WT_HC101A (gene MT0736 (Rv0709 rpmC)): 109.7 CPM and 91.93 CPM | Counts per million (CPM) WT_HC101A (gene MT0741): 127.5 CPM and 136.8 CPM | Counts per million (CPM) WT_HC101A (gene MT0741.1 (Rv0715 rplX)): 117.6 CPM and 111 CPM | Counts per million (CPM) WT_HC101A (gene MT0742.1 (Rv0717 rpsN)): 74.79 CPM and 59 CPM | Counts per million (CPM) WT_HC101A (gene MT0747 (Rv0722 rpmD)): 51.71 CPM and 38.11 CPM | Counts per million (CPM) WT_HC101A (gene MT0845 (Rv0823c)): 1,309.20 CPM and 1,158.35 CPM | Counts per million (CPM) WT_HC101A (gene MT0846 (Rv0824c desA1)): 2,534.91 CPM and 2,497.59 CPM | Counts per million (CPM) WT_HC101A (gene MT0877 (Rv0854)): 32.03 CPM and 42.41 CPM | Counts per million (CPM) WT_HC101A (gene MT0898): 19.09 CPM and 37.47 CPM | Counts per million (CPM) WT_HC101A (gene MT0908 (Rv0885)): 115.6 CPM and 190.5 CPM | Counts per million (CPM) WT_HC101A (gene MT0909 (Rv0886 fprB)): 22.29 CPM and 38.69 CPM | Counts per million (CPM) WT_HC101A (gene MT0911 (Rv0888)): 8.106 CPM and 5.527 CPM | Counts per million (CPM) WT_HC101A (gene MT1002 (Rv0974c accD2)): 418.3 CPM and 235.3 CPM | Counts per million (CPM) WT_HC101A (gene MT1019 (Rv0990c)): 34.58 CPM and 43.4 CPM | Counts per million (CPM) WT_HC101A (gene MT1020): 343 CPM and 416.1 CPM | Counts per million (CPM) WT_HC101A (gene MT1056 (Rv1037c)): 452 CPM and 332.9 CPM | Counts per million (CPM) WT_HC101A (gene MT1095 (Rv1065)): 232.6 CPM and 199.4 CPM | Counts per million (CPM) WT_HC101A (gene MT1106 (Rv1076 lipU)): 66.48 CPM and 91.17 CPM | log2 Fold change (gene MT1106 (Rv1076 lipU)): −1.02 | Counts per million (CPM) WT_HC101A (gene MT1126 (Rv1094 dosA2)): 2,656.44 CPM and 2,736.08 CPM | log2 Fold change (gene MT1126 (Rv1094 dosA2)): −1.332 | Counts per million (CPM) WT_HC101A (gene MT1214 (Rv1177 fdxC)): 754.7 CPM and 847.9 CPM | log2 Fold change (gene MT1214 (Rv1177 fdxC)): −1.296 | Counts per million (CPM) WT_HC101A (gene MT1233 (Rv1195 PE)): 121.2 CPM and 83.32 CPM | log2 Fold change (gene MT1233 (Rv1195 PE)): −2.267 | Counts per million (CPM) WT_HC101A (gene MT1234 (Rv1196 PPE)): 155.8 CPM and 129.3 CPM | log2 Fold change (gene MT1234 (Rv1196 PPE)): −1.874 | Counts per million (CPM) WT_HC101A (gene MT1235): 117.9 CPM and 84.42 CPM | log2 Fold change (gene MT1235): −1.606 | Counts per million (CPM) WT_HC101A (gene MT1236): 78.32 CPM and 44.97 CPM | log2 Fold change (gene MT1236): −2.018 | Counts per million (CPM) WT_HC101A (gene MT1314 (Rv1277)): 209.3 CPM and 172.8 CPM | log2 Fold change (gene MT1314 (Rv1277)): −1.113 | Counts per million (CPM) WT_HC101A (gene MT1322 (Rv1284)): 175.1 CPM and 138.8 CPM | log2 Fold change (gene MT1322 (Rv1284)): −2.008 | log2 Fold change (gene MT1385): −1.321 | Counts per million (CPM) WT_HC101A (gene MT1414.1): 7.648 CPM and 6.866 CPM | log2 Fold change (gene MT1414.1): −1.264 | Counts per million (CPM) WT_HC101A (gene MT1430 (Rv1386 PE)): 44.55 CPM and 57.72 CPM | log2 Fold change (gene MT1430 (Rv1386 PE)): −1.047 | Counts per million (CPM) WT_HC101A (gene MT1431 (Rv1387 PPE)): 210.4 CPM and 246.3 CPM | log2 Fold change (gene MT1431 (Rv1387 PPE)): −1.353 | Counts per million (CPM) WT_HC101A (gene MT1454 (Rv1439c)): 4.118 CPM and 4.771 CPM | log2 Fold change (gene MT1454 (Rv1439c)): 1.126 | Counts per million (CPM) WT_HC101A (gene MT1585.1): 142.6 CPM and 232.8 CPM | log2 Fold change (gene MT1585.1): −2.593 | Counts per million (CPM) WT_HC101A (gene MT1586 (Rv1535)): 48.51 CPM and 45.15 CPM | log2 Fold change (gene MT1586 (Rv1535)): −1.6 | Counts per million (CPM) WT_HC101A (gene MT1600 (Rv1550 fadD11)): 9.74 CPM and 9.135 CPM | log2 Fold change (gene MT1600 (Rv1550 fadD11)): −1.251 | Counts per million (CPM) WT_HC101A (gene MT1627): 14.64 CPM and 15.53 CPM | log2 Fold change (gene MT1627): −1.258 | Counts per million (CPM) WT_HC101A (gene MT1638 (Rv1602 hisH)): 205 CPM and 158.6 CPM | log2 Fold change (gene MT1638 (Rv1602 hisH)): −1.137 | Counts per million (CPM) WT_HC101A (gene MT1692 (Rv1654 argB)): 192.1 CPM and 153.5 CPM | log2 Fold change (gene MT1692 (Rv1654 argB)): −1.311 | Counts per million (CPM) WT_HC101A (gene MT1693 (Rv1655 argD)): 174.4 CPM and 139.2 CPM | log2 Fold change (gene MT1693 (Rv1655 argD)): −1.193 | Counts per million (CPM) WT_HC101A (gene MT1694 (Rv1656 argF)): 117.5 CPM and 85.88 CPM | log2 Fold change (gene MT1694 (Rv1656 argF)): −1.846 | Counts per million (CPM) WT_HC101A (gene MT1725 (Rv1685c)): 12.49 CPM and 11.64 CPM | log2 Fold change (gene MT1725 (Rv1685c)): −1.401 | Counts per million (CPM) WT_HC101A (gene MT1726 (Rv1686c)): 24.78 CPM and 27.99 CPM | log2 Fold change (gene MT1726 (Rv1686c)): −1.625 | Counts per million (CPM) WT_HC101A (gene MT1727 (Rv1687c)): 20.07 CPM and 22.46 CPM | log2 Fold change (gene MT1727 (Rv1687c)): −1.58 | Counts per million (CPM) WT_HC101A (gene MT1736): 131.3 CPM and 161 CPM | log2 Fold change (gene MT1736): −1 | log2 Fold change (gene MT1774 (Rv1733c)): −4.488 | Counts per million (CPM) WT_HC101A (gene MT1775): 38.24 CPM and 49.69 CPM | log2 Fold change (gene MT1775): −3.82 | Counts per million (CPM) WT_HC101A (gene MT1776 (Rv1735c)): 2.811 CPM and 3.782 CPM | log2 Fold change (gene MT1776 (Rv1735c)): −2.478 | log2 Fold change (gene MT1777): −4.737 | log2 Fold change (gene MT1778 (Rv1736c narX)): −5.086 | log2 Fold change (gene MT1779 (Rv1737c narK2)): −4.629 | log2 Fold change (gene MT1780 (Rv1738)): −4.515 | Counts per million (CPM) WT_HC101A (gene MT1797): 11.31 CPM and 15.53 CPM | log2 Fold change (gene MT1797): −1.988 | Counts per million (CPM) WT_HC101A (gene MT1809 (Rv1760)): 57.13 CPM and 39.45 CPM | log2 Fold change (gene MT1809 (Rv1760)): 1.101 | Counts per million (CPM) WT_HC101A (gene MT1822): 12.16 CPM and 7.273 CPM | log2 Fold change (gene MT1822): −1.109
